Results published in patent US8598210B2, “Prolyl hydroxylase inhibitors and methods of use” (Akebia Therapeutics Inc., priority 2006, dated 2013).
At least one compound was matched to its structure with a doubt left.

System: EPO
Experiment: Mouse Serum EPO Assay (mouse ischemic hindlimb study)
Conditions: in vivo response
Description: Mouse Ischemic Hindlimb Study
All animal work is conducted in accordance with the Guide for the Care and Use of Laboratory Animals (National Academy of Sciences; Copyright© 1996) and the Institutional Animal Care and Use Committee guidelines at Procter and Gamble Pharmaceuticals. We studied 9-10 week old male C57B1/6 mice from Charles River Laboratory (Portage, Mich.). The mice are orally dosed with vehicle (aqueous carbonate buffer, 50 mM; pH 9.0) or compound 1 in vehicle at 50 mg/kg or 100 mg/kg. The animals are dosed three times: day 1 at 8 am and 5 pm, day 2 at 8 am. One hour after the first dose, unilateral arterial ligation is performed under anesthesia using isoflurane. The femoral artery is ligated proximal to the origin of the popliteal artery. The contralateral limb underwent a sham surgical procedure. Ligation is performed in an alternating fashion between right and left hindlimbs. Two hours after 8 am dosing on day 2, we obtained blood by ventricular stick while the mice are anesthetized with isoflurane. Serum samples for EPO analysis are obtained using gel clot serum separation tubes. Heart, liver, and gastrocnemius muscles are harvested, snap-frozen in liquid nitrogen, and stored in −80° C. until use.
The mouse serum EPO is detected using Mouse Quantikine Erythropoietin ELISA kit from R&D Systems according to manufacturer's instructions.

CNC(=O)CNC(=O)c1ncc(-c2cccc(Cl)c2)cc1O [5-(3-Chlorophenyl)-N-(2-methylamino-2-oxoethyl)-3-hydroxypyridin-2-yl amide]
EPO response: yes
